According to article doi:10.1101/2024.07.03.601885:
Results are given in words; binding and its absence hold for the method and conditions named. Binding seen in cells or lysates may run through a third protein. Here binding means that the protein was enriched with, or labelled near, the bait; the list need not be complete.

Amino acid sequences for entries named in this document (tags omitted).
UniProt Q61937: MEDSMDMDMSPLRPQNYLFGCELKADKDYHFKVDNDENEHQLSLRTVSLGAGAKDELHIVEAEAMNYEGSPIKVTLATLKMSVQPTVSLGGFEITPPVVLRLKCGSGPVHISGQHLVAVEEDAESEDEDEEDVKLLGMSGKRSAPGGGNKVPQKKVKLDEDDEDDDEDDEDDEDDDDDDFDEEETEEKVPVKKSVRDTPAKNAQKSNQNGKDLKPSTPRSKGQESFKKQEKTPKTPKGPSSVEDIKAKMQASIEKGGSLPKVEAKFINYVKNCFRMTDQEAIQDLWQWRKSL
UniProt Q9Z148: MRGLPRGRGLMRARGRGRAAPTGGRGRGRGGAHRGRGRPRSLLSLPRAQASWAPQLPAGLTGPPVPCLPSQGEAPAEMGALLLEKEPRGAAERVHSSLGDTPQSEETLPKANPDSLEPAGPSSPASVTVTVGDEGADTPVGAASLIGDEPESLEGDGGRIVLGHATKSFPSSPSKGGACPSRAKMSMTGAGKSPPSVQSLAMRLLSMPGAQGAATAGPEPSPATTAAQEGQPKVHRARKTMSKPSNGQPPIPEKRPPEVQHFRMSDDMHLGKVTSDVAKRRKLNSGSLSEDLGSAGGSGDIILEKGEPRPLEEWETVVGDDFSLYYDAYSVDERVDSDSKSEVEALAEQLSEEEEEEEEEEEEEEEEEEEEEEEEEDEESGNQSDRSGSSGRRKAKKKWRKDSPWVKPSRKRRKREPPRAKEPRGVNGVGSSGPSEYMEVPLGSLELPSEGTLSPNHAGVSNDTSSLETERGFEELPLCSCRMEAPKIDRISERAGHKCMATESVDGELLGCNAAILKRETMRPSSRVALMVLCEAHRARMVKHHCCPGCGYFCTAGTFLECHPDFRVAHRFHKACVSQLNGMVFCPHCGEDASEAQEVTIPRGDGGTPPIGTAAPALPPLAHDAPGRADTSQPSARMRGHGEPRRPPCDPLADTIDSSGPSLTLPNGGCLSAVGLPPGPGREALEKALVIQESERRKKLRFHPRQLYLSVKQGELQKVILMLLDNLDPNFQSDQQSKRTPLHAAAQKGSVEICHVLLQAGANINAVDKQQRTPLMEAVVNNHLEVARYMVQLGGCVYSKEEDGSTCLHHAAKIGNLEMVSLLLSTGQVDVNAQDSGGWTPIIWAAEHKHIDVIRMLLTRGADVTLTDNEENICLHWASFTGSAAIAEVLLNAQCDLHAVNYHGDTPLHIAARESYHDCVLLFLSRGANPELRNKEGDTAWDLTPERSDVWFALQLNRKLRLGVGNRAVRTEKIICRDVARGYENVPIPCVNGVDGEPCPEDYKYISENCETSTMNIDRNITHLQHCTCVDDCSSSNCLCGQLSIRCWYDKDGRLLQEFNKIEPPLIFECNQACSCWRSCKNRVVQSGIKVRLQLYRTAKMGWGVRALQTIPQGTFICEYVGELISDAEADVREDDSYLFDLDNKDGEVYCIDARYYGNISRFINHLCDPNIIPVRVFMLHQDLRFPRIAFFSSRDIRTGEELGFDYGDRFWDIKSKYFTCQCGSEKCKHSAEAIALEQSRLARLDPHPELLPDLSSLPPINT
UniProt E9PVX6: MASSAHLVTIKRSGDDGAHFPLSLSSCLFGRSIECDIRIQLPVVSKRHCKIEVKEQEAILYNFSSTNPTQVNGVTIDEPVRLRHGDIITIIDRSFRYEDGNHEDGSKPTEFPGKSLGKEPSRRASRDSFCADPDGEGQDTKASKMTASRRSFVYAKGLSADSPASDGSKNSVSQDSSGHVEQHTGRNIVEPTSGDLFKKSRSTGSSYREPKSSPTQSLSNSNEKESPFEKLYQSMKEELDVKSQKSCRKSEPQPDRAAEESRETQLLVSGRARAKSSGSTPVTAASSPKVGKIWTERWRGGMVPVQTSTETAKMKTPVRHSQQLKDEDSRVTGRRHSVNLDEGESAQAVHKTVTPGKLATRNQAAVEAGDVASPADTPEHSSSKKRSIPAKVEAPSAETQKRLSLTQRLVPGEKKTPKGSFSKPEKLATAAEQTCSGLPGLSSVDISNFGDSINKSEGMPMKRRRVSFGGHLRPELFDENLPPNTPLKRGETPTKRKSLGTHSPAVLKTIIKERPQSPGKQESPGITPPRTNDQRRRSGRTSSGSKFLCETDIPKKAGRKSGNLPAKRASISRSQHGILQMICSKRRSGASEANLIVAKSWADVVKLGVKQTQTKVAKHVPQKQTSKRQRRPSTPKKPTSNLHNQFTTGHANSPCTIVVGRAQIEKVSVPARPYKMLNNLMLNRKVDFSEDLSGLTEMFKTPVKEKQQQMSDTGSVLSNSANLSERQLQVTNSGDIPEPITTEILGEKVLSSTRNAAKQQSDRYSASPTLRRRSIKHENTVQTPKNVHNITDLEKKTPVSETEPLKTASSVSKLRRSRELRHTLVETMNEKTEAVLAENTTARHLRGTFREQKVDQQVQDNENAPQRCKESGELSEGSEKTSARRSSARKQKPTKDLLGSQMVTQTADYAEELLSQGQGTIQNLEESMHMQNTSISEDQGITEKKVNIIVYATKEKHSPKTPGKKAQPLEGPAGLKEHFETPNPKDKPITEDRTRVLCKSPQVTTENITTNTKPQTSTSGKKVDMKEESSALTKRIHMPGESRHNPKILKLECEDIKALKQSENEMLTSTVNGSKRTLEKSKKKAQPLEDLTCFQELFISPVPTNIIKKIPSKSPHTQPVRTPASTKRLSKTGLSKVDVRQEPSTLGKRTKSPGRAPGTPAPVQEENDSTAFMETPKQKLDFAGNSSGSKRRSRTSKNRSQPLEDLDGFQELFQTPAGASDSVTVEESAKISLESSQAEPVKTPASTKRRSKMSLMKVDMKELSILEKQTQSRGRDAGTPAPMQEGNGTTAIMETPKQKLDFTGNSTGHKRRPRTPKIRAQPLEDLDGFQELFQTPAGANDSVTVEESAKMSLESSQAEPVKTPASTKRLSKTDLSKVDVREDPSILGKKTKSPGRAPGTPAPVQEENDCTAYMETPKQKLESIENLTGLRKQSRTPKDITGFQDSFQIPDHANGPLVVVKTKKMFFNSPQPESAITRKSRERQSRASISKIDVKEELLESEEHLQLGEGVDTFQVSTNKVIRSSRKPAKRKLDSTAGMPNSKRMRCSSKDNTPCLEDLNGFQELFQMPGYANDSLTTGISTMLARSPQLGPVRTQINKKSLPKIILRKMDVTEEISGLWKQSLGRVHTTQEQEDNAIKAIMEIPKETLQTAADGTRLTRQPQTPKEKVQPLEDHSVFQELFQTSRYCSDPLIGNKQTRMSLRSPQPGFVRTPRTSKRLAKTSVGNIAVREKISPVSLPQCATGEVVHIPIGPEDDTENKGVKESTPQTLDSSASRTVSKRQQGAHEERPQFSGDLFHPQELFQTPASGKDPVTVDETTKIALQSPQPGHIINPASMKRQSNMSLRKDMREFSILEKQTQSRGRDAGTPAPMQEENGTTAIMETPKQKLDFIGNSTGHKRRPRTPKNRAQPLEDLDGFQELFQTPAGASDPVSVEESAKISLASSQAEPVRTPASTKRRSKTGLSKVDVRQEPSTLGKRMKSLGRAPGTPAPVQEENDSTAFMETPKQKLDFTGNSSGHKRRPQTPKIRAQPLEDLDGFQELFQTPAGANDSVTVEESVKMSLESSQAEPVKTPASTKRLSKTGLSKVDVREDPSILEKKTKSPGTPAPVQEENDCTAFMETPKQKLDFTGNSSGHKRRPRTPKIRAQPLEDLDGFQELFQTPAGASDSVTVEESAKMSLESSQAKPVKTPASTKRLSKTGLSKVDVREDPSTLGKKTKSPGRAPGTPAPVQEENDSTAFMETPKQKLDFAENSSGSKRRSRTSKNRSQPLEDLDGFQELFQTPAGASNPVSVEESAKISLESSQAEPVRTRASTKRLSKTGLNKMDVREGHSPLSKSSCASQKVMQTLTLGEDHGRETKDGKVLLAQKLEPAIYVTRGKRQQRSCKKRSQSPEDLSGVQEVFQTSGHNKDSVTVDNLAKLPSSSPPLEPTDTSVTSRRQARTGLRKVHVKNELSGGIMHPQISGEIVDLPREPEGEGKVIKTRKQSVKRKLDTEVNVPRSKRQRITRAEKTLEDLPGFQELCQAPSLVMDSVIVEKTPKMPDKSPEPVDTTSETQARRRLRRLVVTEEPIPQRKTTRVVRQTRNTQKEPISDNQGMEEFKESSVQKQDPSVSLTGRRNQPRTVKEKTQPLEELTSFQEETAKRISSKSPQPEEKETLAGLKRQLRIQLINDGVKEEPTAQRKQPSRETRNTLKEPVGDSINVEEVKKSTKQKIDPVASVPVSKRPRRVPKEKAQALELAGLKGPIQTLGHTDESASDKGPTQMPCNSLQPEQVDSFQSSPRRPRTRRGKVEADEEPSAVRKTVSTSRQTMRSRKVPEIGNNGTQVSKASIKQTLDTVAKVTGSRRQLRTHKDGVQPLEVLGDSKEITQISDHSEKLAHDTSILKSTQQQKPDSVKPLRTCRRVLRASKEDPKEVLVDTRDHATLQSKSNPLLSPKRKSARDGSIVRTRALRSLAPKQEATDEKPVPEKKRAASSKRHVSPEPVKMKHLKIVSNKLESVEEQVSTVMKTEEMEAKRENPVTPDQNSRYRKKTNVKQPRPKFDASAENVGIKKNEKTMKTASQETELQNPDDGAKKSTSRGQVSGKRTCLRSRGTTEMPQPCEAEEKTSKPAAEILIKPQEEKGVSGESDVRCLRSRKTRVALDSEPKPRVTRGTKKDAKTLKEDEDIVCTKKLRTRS

Target: nucleophosmin (NPM1), endogenous in mouse ESCs (mouse (endogenous in E14 ESCs)) (UniProt Q61937)
Assay: affinity purification with mass spectrometry

Row | binding | Molecule
1 | binds | histone lysine methyltransferase G9a (EHMT2), endogenous in mouse ESCs (from UniProt Q9Z148 1-1263) (enzyme)
2 | binds | MKI67, endogenous in mouse ESCs (from UniProt E9PVX6 1-3177)
3 | binds | Fibrillarin, endogenous in mouse ESCs (protein, UniProt P35550 1-327) MKPGFSPRGGGFGGRGGFGDRGGRGGGRGGRGGFGGGRGGFGGGGRGRGGGGGGFRGRGGGGGRGGGFQSGGNRGRGGGRGGKRGNQSGKNVMVEPHRHEGVFICRGKEDALVTKNLVPGESVYGEKRVSISEGDDKIEYRAWNPFRSKLAAAILGGVDQIHIKPGAKVLYLGAASGTTVSHVSDIVGPDGLVYAVEFSHRSGRDLINLAKKRTNIIPVIEDARHPHKYRMLIAMVDVIFADVAQPDQTRIVALNAHTFLRNGGHFVISIKANCIDSTASAEAVFASEVKKMQQENMKPQEQLTLEPYERDHAVVVGVYRPPPKVKN
